Assay results reported in the supplement of paper PMC11732987, “Enantioselective OTUD7B fragment discovery through chemoproteomics screening and high-throughput optimisation” (Communications Chemistry, 2025).
The other results are listed elsewhere or left out. The data scatter; read single values as rough.

By UniProt entry, the sequences of proteins in these tests, tags left out. Where a name states a change or a piece, a line headed by the entry shows the natural chain unless it says otherwise. Residues count along the entry.
UniProt Q9H2U2: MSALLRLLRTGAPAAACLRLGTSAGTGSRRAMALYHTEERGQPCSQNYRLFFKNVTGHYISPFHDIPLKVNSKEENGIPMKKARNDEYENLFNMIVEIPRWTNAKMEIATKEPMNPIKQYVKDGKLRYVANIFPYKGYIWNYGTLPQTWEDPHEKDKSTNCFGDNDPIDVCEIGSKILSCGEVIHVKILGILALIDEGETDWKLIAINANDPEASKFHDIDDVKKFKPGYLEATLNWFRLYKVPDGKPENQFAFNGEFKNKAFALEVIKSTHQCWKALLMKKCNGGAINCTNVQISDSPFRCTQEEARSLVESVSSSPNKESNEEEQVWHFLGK
UniProt P62937, whole entry, looked up: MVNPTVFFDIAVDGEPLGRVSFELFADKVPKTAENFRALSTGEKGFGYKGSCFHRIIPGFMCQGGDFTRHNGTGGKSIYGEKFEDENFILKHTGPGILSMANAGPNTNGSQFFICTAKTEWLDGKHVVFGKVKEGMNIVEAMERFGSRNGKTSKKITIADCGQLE
UniProt O60678: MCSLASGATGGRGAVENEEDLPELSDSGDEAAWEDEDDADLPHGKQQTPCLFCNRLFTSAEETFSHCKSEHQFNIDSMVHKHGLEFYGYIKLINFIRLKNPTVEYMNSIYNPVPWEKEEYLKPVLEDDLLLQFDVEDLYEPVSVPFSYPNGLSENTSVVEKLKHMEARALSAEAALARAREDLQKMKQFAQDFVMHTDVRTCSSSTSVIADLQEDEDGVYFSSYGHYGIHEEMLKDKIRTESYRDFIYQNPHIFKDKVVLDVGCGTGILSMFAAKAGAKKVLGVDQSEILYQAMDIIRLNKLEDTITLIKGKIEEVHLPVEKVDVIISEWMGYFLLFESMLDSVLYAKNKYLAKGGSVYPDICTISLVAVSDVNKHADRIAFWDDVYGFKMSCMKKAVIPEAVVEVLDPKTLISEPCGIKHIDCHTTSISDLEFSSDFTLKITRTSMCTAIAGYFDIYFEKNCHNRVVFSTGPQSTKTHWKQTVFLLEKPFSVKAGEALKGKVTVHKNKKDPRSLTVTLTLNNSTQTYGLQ
UniProt O14802: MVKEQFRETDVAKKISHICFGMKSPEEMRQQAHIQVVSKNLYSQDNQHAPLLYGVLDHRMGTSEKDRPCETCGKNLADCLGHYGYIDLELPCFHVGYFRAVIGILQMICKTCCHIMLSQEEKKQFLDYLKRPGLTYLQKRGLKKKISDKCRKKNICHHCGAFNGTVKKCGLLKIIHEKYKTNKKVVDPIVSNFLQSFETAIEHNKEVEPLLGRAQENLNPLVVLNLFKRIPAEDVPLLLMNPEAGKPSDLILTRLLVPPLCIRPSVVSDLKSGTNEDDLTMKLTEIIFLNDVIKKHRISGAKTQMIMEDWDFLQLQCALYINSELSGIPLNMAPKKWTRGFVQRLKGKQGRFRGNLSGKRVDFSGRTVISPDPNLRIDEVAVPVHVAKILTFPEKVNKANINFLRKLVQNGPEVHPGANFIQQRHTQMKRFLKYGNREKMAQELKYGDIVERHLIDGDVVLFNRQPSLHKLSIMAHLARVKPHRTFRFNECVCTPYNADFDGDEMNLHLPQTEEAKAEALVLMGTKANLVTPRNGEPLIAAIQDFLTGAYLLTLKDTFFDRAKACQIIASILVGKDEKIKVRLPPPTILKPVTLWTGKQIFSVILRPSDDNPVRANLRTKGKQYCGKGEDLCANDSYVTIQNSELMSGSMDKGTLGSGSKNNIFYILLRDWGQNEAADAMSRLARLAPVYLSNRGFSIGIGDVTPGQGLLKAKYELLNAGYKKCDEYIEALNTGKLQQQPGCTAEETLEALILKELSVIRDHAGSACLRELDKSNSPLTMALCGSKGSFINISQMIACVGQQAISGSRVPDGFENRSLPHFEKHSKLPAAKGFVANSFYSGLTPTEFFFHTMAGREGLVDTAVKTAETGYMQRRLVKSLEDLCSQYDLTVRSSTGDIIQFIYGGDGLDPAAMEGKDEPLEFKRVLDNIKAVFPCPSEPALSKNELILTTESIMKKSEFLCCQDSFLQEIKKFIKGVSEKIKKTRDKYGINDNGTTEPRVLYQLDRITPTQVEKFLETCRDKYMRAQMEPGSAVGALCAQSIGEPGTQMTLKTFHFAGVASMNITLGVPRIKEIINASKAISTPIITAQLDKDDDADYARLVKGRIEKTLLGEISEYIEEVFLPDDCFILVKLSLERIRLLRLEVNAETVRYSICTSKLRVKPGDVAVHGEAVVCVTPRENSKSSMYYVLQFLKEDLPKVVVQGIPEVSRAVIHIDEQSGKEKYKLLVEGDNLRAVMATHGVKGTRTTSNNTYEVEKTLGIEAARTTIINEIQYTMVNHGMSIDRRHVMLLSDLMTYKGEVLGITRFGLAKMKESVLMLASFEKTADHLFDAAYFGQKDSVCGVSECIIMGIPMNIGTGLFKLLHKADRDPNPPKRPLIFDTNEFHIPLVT
UniProt O94806, 13-33: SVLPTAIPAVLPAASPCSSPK
UniProt P78527, whole entry, looked up: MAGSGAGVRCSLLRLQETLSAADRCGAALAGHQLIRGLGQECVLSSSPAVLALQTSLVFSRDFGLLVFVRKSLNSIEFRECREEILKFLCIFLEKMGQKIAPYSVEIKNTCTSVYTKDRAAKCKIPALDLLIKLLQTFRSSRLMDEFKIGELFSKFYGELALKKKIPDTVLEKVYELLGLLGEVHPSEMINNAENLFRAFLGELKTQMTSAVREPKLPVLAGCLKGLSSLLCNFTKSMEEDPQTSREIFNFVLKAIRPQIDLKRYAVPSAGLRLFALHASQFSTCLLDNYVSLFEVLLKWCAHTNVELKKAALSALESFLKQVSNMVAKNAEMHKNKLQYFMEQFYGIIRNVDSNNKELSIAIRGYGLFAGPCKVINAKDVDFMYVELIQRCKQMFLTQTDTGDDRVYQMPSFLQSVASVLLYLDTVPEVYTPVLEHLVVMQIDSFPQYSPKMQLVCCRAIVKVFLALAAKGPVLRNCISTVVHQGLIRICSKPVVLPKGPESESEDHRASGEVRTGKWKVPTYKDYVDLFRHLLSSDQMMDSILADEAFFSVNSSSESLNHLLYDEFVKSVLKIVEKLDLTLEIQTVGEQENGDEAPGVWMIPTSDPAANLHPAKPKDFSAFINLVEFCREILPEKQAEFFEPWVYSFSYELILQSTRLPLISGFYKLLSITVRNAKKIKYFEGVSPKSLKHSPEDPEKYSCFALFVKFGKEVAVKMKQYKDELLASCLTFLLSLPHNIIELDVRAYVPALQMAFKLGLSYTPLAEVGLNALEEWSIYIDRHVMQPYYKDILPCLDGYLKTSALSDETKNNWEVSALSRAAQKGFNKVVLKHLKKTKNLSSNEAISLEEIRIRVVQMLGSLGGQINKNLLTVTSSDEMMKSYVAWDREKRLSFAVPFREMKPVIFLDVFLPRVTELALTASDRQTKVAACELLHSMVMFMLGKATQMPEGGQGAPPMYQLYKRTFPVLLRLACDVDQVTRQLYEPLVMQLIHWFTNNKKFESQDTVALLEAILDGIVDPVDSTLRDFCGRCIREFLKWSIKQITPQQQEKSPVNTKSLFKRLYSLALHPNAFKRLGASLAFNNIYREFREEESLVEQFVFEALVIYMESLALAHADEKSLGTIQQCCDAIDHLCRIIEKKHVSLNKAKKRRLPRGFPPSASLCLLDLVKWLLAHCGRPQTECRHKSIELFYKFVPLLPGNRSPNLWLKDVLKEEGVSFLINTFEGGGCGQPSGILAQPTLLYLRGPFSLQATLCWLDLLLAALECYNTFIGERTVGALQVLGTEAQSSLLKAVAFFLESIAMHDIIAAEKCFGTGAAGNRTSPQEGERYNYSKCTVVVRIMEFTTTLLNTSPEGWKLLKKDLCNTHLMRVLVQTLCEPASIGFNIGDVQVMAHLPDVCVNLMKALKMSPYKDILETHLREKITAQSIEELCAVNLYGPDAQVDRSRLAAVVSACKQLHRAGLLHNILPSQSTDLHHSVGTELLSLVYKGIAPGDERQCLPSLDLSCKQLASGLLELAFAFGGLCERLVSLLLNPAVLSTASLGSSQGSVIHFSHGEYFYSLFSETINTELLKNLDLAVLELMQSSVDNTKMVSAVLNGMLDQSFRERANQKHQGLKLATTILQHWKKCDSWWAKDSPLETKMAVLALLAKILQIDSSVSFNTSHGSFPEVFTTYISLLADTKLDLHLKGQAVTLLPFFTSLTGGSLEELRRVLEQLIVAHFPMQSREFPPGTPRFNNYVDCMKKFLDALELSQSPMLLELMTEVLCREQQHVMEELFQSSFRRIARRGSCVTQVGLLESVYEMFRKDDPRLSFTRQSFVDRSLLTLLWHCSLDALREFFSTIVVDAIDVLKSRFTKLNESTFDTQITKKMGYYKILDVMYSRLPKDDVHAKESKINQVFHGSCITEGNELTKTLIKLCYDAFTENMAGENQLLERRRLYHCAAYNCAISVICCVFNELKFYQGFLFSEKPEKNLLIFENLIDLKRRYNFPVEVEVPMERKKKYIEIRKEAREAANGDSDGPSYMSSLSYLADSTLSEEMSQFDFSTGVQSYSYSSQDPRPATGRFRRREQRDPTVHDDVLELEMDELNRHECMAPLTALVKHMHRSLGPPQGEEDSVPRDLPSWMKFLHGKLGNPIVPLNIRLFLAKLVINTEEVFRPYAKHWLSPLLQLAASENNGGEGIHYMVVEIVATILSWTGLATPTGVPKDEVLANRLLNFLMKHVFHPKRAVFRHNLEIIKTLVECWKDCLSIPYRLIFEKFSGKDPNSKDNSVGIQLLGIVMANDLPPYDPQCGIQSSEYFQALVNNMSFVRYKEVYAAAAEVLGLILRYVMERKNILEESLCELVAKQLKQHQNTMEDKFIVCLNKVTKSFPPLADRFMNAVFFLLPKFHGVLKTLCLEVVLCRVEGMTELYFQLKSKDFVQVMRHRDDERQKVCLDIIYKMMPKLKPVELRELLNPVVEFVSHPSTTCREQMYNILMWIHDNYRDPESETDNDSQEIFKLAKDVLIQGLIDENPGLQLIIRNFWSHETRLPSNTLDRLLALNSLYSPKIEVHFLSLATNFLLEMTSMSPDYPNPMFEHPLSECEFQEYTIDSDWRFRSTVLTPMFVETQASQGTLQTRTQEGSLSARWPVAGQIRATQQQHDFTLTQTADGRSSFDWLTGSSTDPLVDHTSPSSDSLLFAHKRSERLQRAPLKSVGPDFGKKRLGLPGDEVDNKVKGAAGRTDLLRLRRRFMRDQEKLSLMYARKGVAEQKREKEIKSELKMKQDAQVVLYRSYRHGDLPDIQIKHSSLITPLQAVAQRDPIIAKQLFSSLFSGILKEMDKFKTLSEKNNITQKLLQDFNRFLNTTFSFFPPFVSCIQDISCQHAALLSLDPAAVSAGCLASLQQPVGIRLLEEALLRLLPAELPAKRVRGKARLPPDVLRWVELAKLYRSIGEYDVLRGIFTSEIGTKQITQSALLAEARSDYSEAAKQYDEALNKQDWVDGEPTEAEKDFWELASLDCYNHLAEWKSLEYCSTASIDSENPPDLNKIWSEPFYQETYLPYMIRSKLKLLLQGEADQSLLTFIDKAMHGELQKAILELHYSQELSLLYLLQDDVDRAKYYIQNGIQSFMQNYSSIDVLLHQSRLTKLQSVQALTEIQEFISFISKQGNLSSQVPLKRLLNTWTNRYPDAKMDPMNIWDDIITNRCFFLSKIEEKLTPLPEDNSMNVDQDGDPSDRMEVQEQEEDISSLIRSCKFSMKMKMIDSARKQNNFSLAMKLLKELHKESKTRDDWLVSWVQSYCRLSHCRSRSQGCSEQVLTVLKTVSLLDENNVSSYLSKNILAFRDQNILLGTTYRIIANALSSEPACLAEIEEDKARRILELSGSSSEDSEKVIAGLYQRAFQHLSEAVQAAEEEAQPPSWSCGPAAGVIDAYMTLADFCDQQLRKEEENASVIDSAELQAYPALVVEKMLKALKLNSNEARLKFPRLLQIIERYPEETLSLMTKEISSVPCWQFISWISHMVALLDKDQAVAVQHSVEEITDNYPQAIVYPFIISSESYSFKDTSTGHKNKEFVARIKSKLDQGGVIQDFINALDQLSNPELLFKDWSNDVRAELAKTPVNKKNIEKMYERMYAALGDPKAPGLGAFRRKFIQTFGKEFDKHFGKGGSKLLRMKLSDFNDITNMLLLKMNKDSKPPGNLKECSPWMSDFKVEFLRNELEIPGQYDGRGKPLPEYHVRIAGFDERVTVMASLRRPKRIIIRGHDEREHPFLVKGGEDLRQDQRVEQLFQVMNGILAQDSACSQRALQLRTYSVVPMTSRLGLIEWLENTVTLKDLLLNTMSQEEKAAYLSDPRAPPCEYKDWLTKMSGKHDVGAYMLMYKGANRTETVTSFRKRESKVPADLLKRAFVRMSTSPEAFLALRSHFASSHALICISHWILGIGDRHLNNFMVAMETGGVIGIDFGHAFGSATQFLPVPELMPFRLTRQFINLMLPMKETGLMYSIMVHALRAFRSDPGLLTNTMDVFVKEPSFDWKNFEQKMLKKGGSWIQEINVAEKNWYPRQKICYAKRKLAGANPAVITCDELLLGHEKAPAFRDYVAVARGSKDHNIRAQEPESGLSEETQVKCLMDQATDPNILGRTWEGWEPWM
UniProt P78527, 4051-4070: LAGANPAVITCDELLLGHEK

Assays:
[1] = compound: ClCC(=O)N[C@@H]1CCCc2ccccc12; assay: log2 mean competition ratio of IA-DTB cysteine labelling (DMSO/compound) (log2 ratio); higher = stronger cysteine engagement by compound; conditions: treatment time: 4 h, cell line lysate: HEK293T
Experimental: (§1)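 IA-DTB competitive cysteine chemoproteomics in HEK293T RIPA lysate. Lysates were treated with compound 29 or 30 at 50 or 200 µM for 4 h, then IA-DTB (500 µM, 1 h), trypsin-digested, NeutrAvidin-enriched and analysed by diaPASEF. Competition ratio = intensity DMSO / intensity compound (n=4 treated, n=64 DMSO); binding: mean log2 CR ≥ 1 and p ≤ 0.05 plus QC filters. Target is the cysteine site.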

[2] = compound: ClCC(=O)N[C@H]1CCCc2ccccc12; assay: as above; conditions: treatment time: 4 h, cell line lysate: HEK293T
Experimental: as §1

Target | log2 mean competition ratio ([1]; 50 µM) | log2 mean competition ratio ([1]; 200 µM) | log2 mean competition ratio ([2]; 50 µM) | log2 mean competition ratio ([2]; 200 µM)
PPA2 C302 (UniProt Q9H2U2) | -0.15 | 0.0336 | -0.216 | 0.00817
PREP C255 | 0.0972 | -0.19 | 0.255 | -0.21
PPIA C161 (UniProt P62937) | -0.217 | 0.208 | -0.122 | 0.304
PRMT3 C2 (UniProt O60678) | 0.0805 | -0.178 | 0.143 | 0.0212
PRPS1 C165 | -0.0896 | -0.284 | -0.194 | -0.183
PPIG C310 (UniProt Q13427) | 0.217 | -0.117 | 0.0483 | -0.26
POP5 C146 (UniProt Q969H6) | -0.377 | 0.104 | 0.0257 | 0.185
PPP6R3 C37 (UniProt Q5H9R7) | -0.0485 | -0.16 | 0.104 | -0.177
POLR3A C1174 (UniProt O14802) | -0.511 | -0.195 | -0.552 | -0.348
PRKD3 C29 (UniProt O94806) | -0.26 | -0.0228 | -0.226 | -0.0116
PRKDC C2248 (UniProt P78527) | 0.0164 | -0.327 | 0.0841 | -0.467
PRKCZ C503 (UniProt Q05513) | 0.497 | 0.113 | 0.111 | 0.111
PRDM6 C426 | -0.0681 | -0.0152 | 0.281 | 0.169
POLR3B C161 (UniProt Q9NW08) | 0.0668 | 0.484 | 0.138 | 0.569
PPP4R1 C663 (UniProt Q8TF05) | -0.00272 | 0.153 | 0.361 | 0.414
POLR3E C350 (UniProt Q9NVU0) | 0.055 | 0.196 | 0.0139 | 0.0955
PPP6R2 C49 (UniProt O75170) | 0.0807 | -0.222 | -0.269 | -0.135
PRKDC C3837 (UniProt P78527) | 0.0406 | 0.54 | -0.412 | 0.34
POLR3B C687 (UniProt Q9NW08) | 0.108 | 0.0468 | 0.146 | 0.122
PRKCI C190 (UniProt P41743) | -0.144 | -0.0445 | 0.134 | 0.121
PPM1D C478 | -0.373 | -0.304 | 0.0838 | -0.0343
PRR14L C1079 (UniProt Q5THK1) | -0.123 | -0.00812 | 0.0813 | 0.0505
POLR2B C161 (UniProt P30876) | 0.0933 | 0.1 | 0.0154 | 0.0916
POTEI C917 (UniProt P0CG38) | 0.199 | 0.0335 | 0.688 | -0.119

Target | log2 mean competition ratio ([1]; 50 µM) | log2 mean competition ratio ([1]; 200 µM) | log2 mean competition ratio ([2]; 50 µM) | log2 mean competition ratio ([2]; 200 µM)
PRKCI C400 (UniProt P41743) | -0.0903 | -0.0519 | 0.252 | 0.131
PPP1R12B C718 (UniProt O60237) | -0.132 | 0.354 | 0.253 | 0.00974
PRDX3 C45 (UniProt P30048) | -0.129 | 0.105 | -0.231 | 0.298
PRKCZ C107 (UniProt Q05513) | 0.12 | -0.178 | 0.294 | -0.201
PRKCE C352 (UniProt Q02156) | 0.218 | 0.202 | -0.0308 | -0.214
POLRMT C413 (UniProt O00411) | 0.127 | -0.0226 | -0.578 | -0.123
PPOX C258 (UniProt P50336) | 0.269 | 0.0427 | 0.759 | 0.237
POLR2A C1245 | -0.311 | 0.273 | -0.501 | 0.378
PRMT3 C417 (UniProt O60678) | -0.223 | -0.126 | 0.034 | -0.0725
PRDX1 C173 (UniProt Q06830) | 0.0595 | -0.376 | 0.153 | -0.242
PPP1R3G C225 | 0.138 | -0.26 | 0.0965 | -0.347
PPM1G C351 (UniProt O15355) | -0.0868 | -0.0643 | 0.131 | -0.0284
PRMT3 C67 (UniProt O60678) | -0.265 | 0.095 | -0.346 | 0.0436
POLRMT C1192 (UniProt O00411) | -0.0477 | 0.0256 | 0.123 | -0.0446
PPIG C549 (UniProt Q13427) | -0.196 | 0.14 | -0.223 | 0.13
PRKAA2 C382 (UniProt P54646) | 0.196 | 0.367 | -0.331 | 0.249
PPP2R1A C390 (UniProt P30153) | -0.265 | 0.488 | -0.438 | 0.28
PRKDC C4061 (UniProt P78527) | 0.186 | -0.0114 | -0.0832 | -0.0338
POLR3E C456 (UniProt Q9NVU0) | -0.12 | 0.0151 | -0.356 | -0.000518
POP5 C11 (UniProt Q969H6) | 0.219 | -0.00453 | 0.0417 | -0.00207
PRKDC C1312 (UniProt P78527) | 0.0515 | -0.075 | 0.06 | -0.0811
PRMT9 C175 (UniProt Q6P2P2) | -0.0966 | 0.118 | 0.0754 | 0.129
PREP C57 | -0.179 | -0.0884 | -0.379 | 0.0452
PPIP5K2 C338 | -0.242 | 0.00239 | -0.172 | 0.028

Copied from above (3 entries):
Target | log2 mean competition ratio ([1]; 50 µM) | log2 mean competition ratio ([1]; 200 µM) | log2 mean competition ratio ([2]; 50 µM) | log2 mean competition ratio ([2]; 200 µM)
PRKDC C1312 (UniProt P78527) | 0.0515 | -0.075 | 0.06 | -0.0811
PRMT9 C175 (UniProt Q6P2P2) | -0.0966 | 0.118 | 0.0754 | 0.129
PREP C57 | -0.179 | -0.0884 | -0.379 | 0.0452
